Laboratory results: PubChem BioAssay AID1159584 (Peter MacCallum Cancer Centre, 2016)

- Assay: 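Knock-downs that harm CDH1-null cells more than parental MCF10A cells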 (primary screen)
- Cells: human MCF10A breast epithelial cells, parental and CDH1-null
- Reagent: siRNA against human genes
- Measured: 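Cell viability by CellTiter-Glo ATP luminescence, each line scaled to the mean of mock wells across plates, then CDH1-null over parental ratio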
- Reading the numbers: CDH1-null / parental viability ratio: higher = CDH1-null cells survive relatively better than parental
The deposit covers about 18,000 reagents; below is an unselected part. Further read-outs or replicates are left out here. Reagent sequences are not shown. Not given: the amount of reagent, the time to read-out.

ARID2
- CDH1-null / parental viability ratio: 1.18

ABCA4
- CDH1-null / parental viability ratio: 0.94

ARRDC2
- CDH1-null / parental viability ratio: 1.1

CLDN8
- CDH1-null / parental viability ratio: 1.17

UBE2D1
- CDH1-null / parental viability ratio: 1.48

TMEM91
- CDH1-null / parental viability ratio: 0.98

BHLHE41
- CDH1-null / parental viability ratio: 0.89

GPBP1L1
- CDH1-null / parental viability ratio: 1.04

HMCES
- CDH1-null / parental viability ratio: 0.93

ZDHHC19
- CDH1-null / parental viability ratio: 1.04

OR4A16
- CDH1-null / parental viability ratio: 0.86

COMMD4
- CDH1-null / parental viability ratio: 1.29

UROC1
- CDH1-null / parental viability ratio: 1.13

TOLLIP
- CDH1-null / parental viability ratio: 1.25

SNURF
- CDH1-null / parental viability ratio: 1.11

CEBPG
- CDH1-null / parental viability ratio: 1.04

CHST3
- CDH1-null / parental viability ratio: 1

FSD2
- CDH1-null / parental viability ratio: 0.63

UTP14C
- CDH1-null / parental viability ratio: 1.23

PROS1
- CDH1-null / parental viability ratio: 0.76

GEMIN4
- CDH1-null / parental viability ratio: 1.07

BIN1
- CDH1-null / parental viability ratio: 1.62

IFNA4
- CDH1-null / parental viability ratio: 1.09

GPR108
- CDH1-null / parental viability ratio: 1.65

JHY
- CDH1-null / parental viability ratio: 0.85

C1QBP
- CDH1-null / parental viability ratio: 1

SMARCA2
- CDH1-null / parental viability ratio: 0.93

PPP2R3C
- CDH1-null / parental viability ratio: 1.03

COPB1
- CDH1-null / parental viability ratio: 0.8

CTR9
- CDH1-null / parental viability ratio: 0.79

CFAP299
- CDH1-null / parental viability ratio: 0.93

HIGD1A
- CDH1-null / parental viability ratio: 0.93

MBD3L1
- CDH1-null / parental viability ratio: 1.16

EDARADD
- CDH1-null / parental viability ratio: 1.05

KLF16
- CDH1-null / parental viability ratio: 0.94

TRIML2
- CDH1-null / parental viability ratio: 1.04

INPP5F
- CDH1-null / parental viability ratio: 1

CBY2
- CDH1-null / parental viability ratio: 0.94

ASAP2
- CDH1-null / parental viability ratio: 0.96

ZNF331
- CDH1-null / parental viability ratio: 0.87

BRD4
- CDH1-null / parental viability ratio: 0.79

HILPDA
- CDH1-null / parental viability ratio: 1.03

CTLA4
- CDH1-null / parental viability ratio: 1.09

LGALS9
- CDH1-null / parental viability ratio: 0.87

RPL10
- CDH1-null / parental viability ratio: 1.24

4 of these entries, reformatted.
target gene | CDH1-null / parental viability ratio
INPP5F | 1
CBY2 | 0.94
ASAP2 | 0.96
ZNF331 | 0.87
